Screening data, single-dose tests

The chains behind the UniProt entries cited, without tags or fusion partners. Residues count along the entry.
UniProt Q4DA54, 1-478: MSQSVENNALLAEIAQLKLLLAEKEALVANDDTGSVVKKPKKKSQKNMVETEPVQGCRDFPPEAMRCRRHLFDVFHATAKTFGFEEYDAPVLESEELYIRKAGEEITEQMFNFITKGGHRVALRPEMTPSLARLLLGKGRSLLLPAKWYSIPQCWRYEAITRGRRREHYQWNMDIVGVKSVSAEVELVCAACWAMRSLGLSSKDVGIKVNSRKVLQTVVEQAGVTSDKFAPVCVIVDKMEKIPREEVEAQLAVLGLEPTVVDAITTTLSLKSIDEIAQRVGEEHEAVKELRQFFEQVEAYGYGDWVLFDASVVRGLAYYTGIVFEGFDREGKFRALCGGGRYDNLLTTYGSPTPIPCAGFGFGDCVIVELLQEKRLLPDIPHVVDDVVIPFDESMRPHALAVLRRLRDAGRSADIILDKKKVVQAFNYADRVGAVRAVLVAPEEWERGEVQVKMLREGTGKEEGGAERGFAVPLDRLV

The values are deposited in ChEMBL (CHEMBL3988442, “University of Dundee, Small-Polar-MMV Screening Library” (2021)).

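Enzyme assay of histidyl-tRNA synthetase; the read-out is not stated. Target: Histidine-tRNA ligase, Trypanosoma cruzi CL Brener (UniProt Q4DA54). Compounds at 30 µM. Direction is inferred from retests: higher values go with stronger inhibition. About 69,000 compounds were tested under these conditions; 0.045% (about 31) showed 50% or more at least once.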

Each number is a percent effect as filed.
The controls that fix the scale are not given in the record; negative values are as filed.
This is an unselected part of the compounds tested.

Compound | Percent Effect
CCc1nnc(NCc2cccc(OC)c2OC)o1 | 4.082%
c1csc(CNCC2COCc3c(-c4ccsc4)nnn3C2)n1 (centres undefined) | 8.247%
CC(C)Cc1nc(OCC(=O)O)c(C#N)c2c1CCC2 | -0.5464%
COc1ccccc1CN1CCCC(n2cccn2)C1 (centres undefined) | -1.961%
CNc1snc(C)c1C(=O)N1CCCC(n2cccn2)C1 (centres undefined) | 3.955%
O=C1NCCCCC1NC(=O)C1(c2ccccc2)CCOCC1 (centres undefined) | 7.143%
c1cnnc(N2CCC(c3nnc(Cn4ccnc4)n3C3CC3)CC2)c1 | 7.955%
COc1cccc(CN2CCCCC2Cn2nc(C)nc2C)c1 (centres undefined) | 5.413%
Cc1nc(N2CCCC2)nc2c1CCN(C(=O)CC1CC1)CC2 | -0.5464%
O=C(O)CN(Cc1ccsc1)CC1CCCO1 (centres undefined) | 3.478%
COc1ccccc1OC1CN(C(=O)C(c2ccc(F)cc2)N(C)C)C1 (centres undefined) | 8.511%
COC1(CNC(=O)c2ccc(F)c(F)c2)CCSC1 (centres undefined) | 8.173%
CCCn1nnnc1COC(=O)C1Cc2cc(Cl)ccc2O1 (centres undefined) | -0.8696%
COC(=O)COc1nc(C(C)C)no1 | 0.9901%
CC(C)(C)c1ccc(-n2ncc3c2CCCC3N)cc1 (centres undefined) | 3.478%
CN(Cc1nnc2n1CCC2)C(=O)CCc1ccc2c(c1)OCO2 | 0.2907%
CC(C)(C)C(=O)NCc1cnn2ccccc12 | 6.667%
Cc1cc2nc(SCC(=O)N3CCOCC3)n(CCC(C)C)c(=O)c2[nH]1 | -3.659%
CN(C)C(CNC(=O)c1ncoc1-c1ccccc1)c1ccsc1 (centres undefined) | 1.948%
O=C(NCCNc1ncccn1)NCc1cccc(OC(F)F)c1 | 10.39%
Cc1ccc(-c2nc(CN3CCn4c(C)nnc4C3)cs2)o1 | 1.667%
CC(C(=O)O)N1CCc2onc(-c3ccc(F)c(F)c3)c2C1 (centres undefined) | 7.738%
COc1cc(N2C[C@@H]3COC[C@@H](Cc4nc(C)no4)[C@@H]3C2)ncn1 | 12.56%
Cc1cccc(NC(=O)c2csc(NCC(C)C)n2)n1 | 3.636%
Cc1c[nH]nc1C1CCN(S(=O)(=O)N(C)C)CC1 | 3.784%
CN(Cc1noc(C2CC2)n1)C1CCN(Cc2nnc(C3CC3)o2)C1 (centres undefined) | 5.703%
O=C(c1cccc(-c2ccc(F)cc2)c1)N1CCCC(O)(CO)CC1 (centres undefined) | 2.4%
CCc1nc(NS(=O)(=O)c2ccc(F)cc2C)no1 | 2.075%
CCOc1ccc2cc(C(=O)NCCNc3ccc(C)nn3)[nH]c2c1 | 1.739%
c1cnc(NCC2Cn3nnc(-c4ccsc4)c3CO2)nc1 (centres undefined) | 6.122%
Cc1nccn1Cc1nnc(C2CCCN(c3cnccn3)C2)n1C (centres undefined) | 0%
CCOCCCNC(=O)c1nnn(Cc2ccccc2)c1OC | 3.478%
O=C(Nc1ccc(-c2ccccc2)cn1)C1CCCN1C(=O)C1CC1 (centres undefined) | 1.02%
CC(Cc1cn(CCc2nc(N)cc(O)n2)nn1)c1ccccc1 (centres undefined) | 5.473%
CN1CCCCC[C@@H]2[C@@H]1[C@H](c1ccccc1)CN2C(=O)c1ccccn1 | 15.96%
CCC(CN1CCCC1)NC(=O)C1(c2ccc(F)cc2)CC1 (centres undefined) | 6.818%
NC(=O)C1CNCCN1C(=O)COc1ccccc1 (centres undefined) | 7.143%
CCOc1ccc(CN2CCNC(C(=O)NC3CC3)C2)cc1CO (centres undefined) | 0%
CC(=O)N(Cc1ncc(C(C)C)o1)C1CCN(CCn2cccn2)C1 (centres undefined) | 3.448%
CCCS(=O)(=O)N1C[C@@H](Oc2ncccc2F)[C@H]2OCCC[C@H]21 | -1%
N#Cc1ccc(C(=O)O)nc1/C=C/c1cccc(F)c1 | -3.867%
CCOc1cc(N2CCN(C(=O)c3ccc(OC)cc3)CC2)nc(C)n1 | 0%
c1ccc(COC[C@H]2CC[C@H]3[C@H](CCN3Cc3cccs3)O2)nc1 | 8.163%
O=C(C[C@@H]1COC[C@H]2CN(Cc3ccc(F)cc3)C[C@@H]12)N1CCCCO1 | -1.639%
CC(=O)Nc1nc(C(=O)N2CCCC2c2noc(C(C)C)n2)cs1 (centres undefined) | 0.5764%
O=C(Nc1ccnn1Cc1ccc(Cl)cc1)C1CCS(=O)(=O)C1 (centres undefined) | 6.25%
Cc1cc(C)c(CNC(=O)NCC(O)c2cccc(F)c2)c(=O)[nH]1 (centres undefined) | 3.788%
Cc1cnc(N2CCC3(CCN(Cc4csc(C)n4)C3=O)C2)nc1 (centres undefined) | 2.21%
CCCn1c(NCCc2ccccc2)nc2c(C)nn(C)c2c1=O | 7.826%
COCCCN1CCN(c2ncnc3nc(C)cc(C)c23)CC1 | 6.061%
O=C(CCC(=O)N1CCOCC1)NCc1cccnc1-n1cccn1 | 3.784%
CN1CCN(S(=O)(=O)c2cccc(C#N)c2)c2ccc(F)cc21 | -8.995%
CC(NC(=O)c1cc(Br)c2c(c1)OCCO2)C(N)=O (centres undefined) | -9.434%
CCOC[C@@H]1CC[C@H]2[C@H](CCN2S(=O)(=O)Cc2ccccc2)O1 | 0%
CCC(=O)N1CCC(c2nc3c(c(NC)n2)CN(C)CC3)C1 (centres undefined) | -6.084%
Cc1cnn(CC2CCCN2C(=O)c2ccc3[nH]c(=O)[nH]c3c2)c1 (centres undefined) | 7.123%
COc1cccc2c1ccn2CCNC(=O)C1CCC1 | 5.263%
Cc1noc(C)c1CN1CCN(Cc2cccnc2)c2ncccc2C1 | 5.102%
Cc1ccc(F)c(S(=O)(=O)NCc2cccc(CS(C)(=O)=O)c2)c1 | 11.76%
CCCC(=O)N1CCCCC1c1nc(N(C)C)ncc1-c1cc(C)no1 (centres undefined) | 3.448%
O=C(N[C@@H]1CCN(C(=O)C2CCOCC2)C[C@H]1O)c1ccccn1 | 2.235%
CNc1[nH]nc(N)c1C(=O)Nc1ccc(OC)cc1 | -1.242%
CNC(=O)CN1CCC(NC(=O)N(C)Cc2cc(C)on2)CC1 | -3.396%
O=C1NC2(CCN(Cc3ccc(F)cc3)CC2)CC1c1ccncc1 (centres undefined) | 4.132%
Cc1ccc(C(NC(=O)CN2CCc3cncnc3C2)C2CC2)cc1 (centres undefined) | 16.87%
CCOc1ncccc1Cn1cc(-c2cncnc2)nn1 | 6.579%
Cc1ccc(N(C)Cc2nnnn2C2CC2)c(C)c1 | 1.053%
Cc1nnc2n1CCN(C(=O)C(OC1CCCC1)c1ccccc1)C2 (centres undefined) | 4.902%
CC(Cc1cccs1)C(=O)NCc1cccc(N2CCCC2=O)c1 (centres undefined) | -1.681%
Cc1ccc(NC2CCN(C(=O)COc3ccccc3)CC2)nn1 | 4.871%
Cc1oncc1C(=O)N1CCC2(CCN(Cc3cccnc3)C2=O)C1 (centres undefined) | 6.03%
NC(=O)C1CCN(C(=O)NCc2ccccc2-n2cccn2)C1 (centres undefined) | 9.04%
CCn1cc(NC(=O)NCC(O)c2ccccc2)cn1 (centres undefined) | 6.767%
C[C@@H](O)[C@H](NC(=O)c1csc2nc(-c3ccccc3F)cn12)C(N)=O | 9.574%
Cc1cc(C)nc(N2CCC(C(=O)O)(n3ccc(C(C)(C)C)n3)CC2)n1 | 3.125%

Once more, the final 4:

NC(=O)C1CCN(C(=O)NCc2ccccc2-n2cccn2)C1 (centres undefined) gave 9.04%.
CCn1cc(NC(=O)NCC(O)c2ccccc2)cn1 (centres undefined) gave 6.767%.
C[C@@H](O)[C@H](NC(=O)c1csc2nc(-c3ccccc3F)cn12)C(N)=O gave 9.574%.
Cc1cc(C)nc(N2CCC(C(=O)O)(n3ccc(C(C)(C)C)n3)CC2)n1 gave 3.125%.